{"source": "paper PMC8871739", "binders": {"B1": {"name": "GhMCesA35 (enzyme, UniProt P93155 1-974)", "chain": "MMESGVPVCHTCGEHVGLNVNGEPFVACHECNFPICKSCFEYDLKEGRKACLRCGSPYDENLLDDVEKATGDQSTMAAHLNKSQDVGIHARHISSVSTLDSEMAEDNGNSIWKNRVESWKEKKNKKKKPATTKVEREAEIPPEQQMEDKPAPDASQPLSTIIPIPKSRLAPYRTVIIMRLIILGLFFHYRVTNPVDSAFGLWLTSVICEIWFAFSWVLDQFPKWYPVNRETYIDRLSARYEREGEPDELAAVDFFVSTVDPLKEPPLITANTVLSILALDYPVDKVSCYISDDGAAMLTFESLVETADFARKWVPFCKKFSIEPRAPEFYFSQKIDYLKDKVQPSFVKERRAMKRDYEEYKIRINALVAKAQKTPDEGWTMQDGTSWPGNNPRDHPGMIQVFLGYSGARDIEGNELPRLVYVSREKRPGYQHHKKAGAENALVRVSAVLTNAPFILNLDCDHYVNNSKAVREAMCFLMDPQVGRDVCYVQFPQRFDGIDRSDRYANRNTVFFDVNMKGLDGIQGPVYVGTGCVFNRQALYGYGPPSMPSFPKSSSSSCSCCCPGKKEPKDPSELYRDAKREELDAAIFNLREIDNYDEYERSMLISQTSFEKTFGLSSVFIESTLMENGGVAESANPSTLIKEAIHVISCGYEEKTAWGKEIGWIYGSVTEDILTGFKMHCRGWRSIYCMPLRPAFKGSAPINLSDRLHQVLRWALGSVEIFLSRHCPLWYGFGGGRLKWLQRLAYINTIVYPFTSLPLIAYCSLPAICLLTGKFIIPTLSNLASVLFLGLFLSIIVTAVLELRWSGVSIEDLWRNEQFWVIGGVSAHLFAVFQGFLKMLAGIDTNFTVTAKAADDADFGELYIVKWTTLLIPPTTLLIVNMVGVVAGFSDALNKGYEAWGPLFGKVFFSFWVILHLYPFLKGLMGRQNRTPTIVVLWSVLLASVFSLVWVRINPFVSTADSTTVSQSCISIDC"}}, "target": "GhCesA7 (Gossypium hirsutum)", "experiment": "two-hybrid; yeast strain Y2H-Gold; pGBKT7 and pGADT7 fusions; growth on SD/-Trp/-Leu (DDO), then on SD/-Trp/-His/-Ade/-Leu (QDO) with X-α-GAL/ABA, 30 °C, 3-5 days", "note": "These are yes or no findings as the source states them, for the method shown. Binding can be weak; no strength is given."}
{"binder": "B1", "values": [{"measurement": "binding", "value": "binds"}]}
